According to PubChem BioAssay AID743395 (Broad Institute, 2014):
The whole screen tested about 1,200 compounds, of which about 480 (40%) were called active. No rule for the calls is given here. The set was probably picked from earlier hits. Only a part is listed here, and it is no random draw. Entries with a potency or affinity are not part of this list.

assay: viability loss in human hepatoma cells – cell-based, CellTiter-Glo luminescence, cherry-pick, set 2, cytotoxicity control, dose response (AID 743395); conditions: HepG2 viability, CellTiter-Glo ATP luminescence, 72 h; at 26 µM (top of the series);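 also: 0% = neutral control wells and -100% = positive control wells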

Structure (SMILES)	activity change, negative = cytotoxicity
CCOC(=O)C1CCCN(c2ccc([N+](=O)[O-])c3nonc23)C1 (configuration not stated)	inactive: -5.66%
O=c1[nH]c(=O)n(-c2cccc3ccccc23)c(O)c1/C=N/N1CCCCC1c1cccnc1 (configuration not stated)	inactive: 1.13%
O=P(Oc1ccc(-c2ccccc2)cc1)(N1CC1)N1CC1	inactive: -27.4%
O=C1NC(=O)C(=Cc2ccc(N3CCOCC3)o2)C(=O)N1	inactive: -16.6%
N#C/C(=C\c1ccc(O)cc1)C(=O)O (tested in a mixture with another compound)	inactive: -6.79%
CC1(C)OC(c2ccccc2)=C/C(=C/C=C2C(=O)NC(=O)NC2=O)O1	inactive: -22.8%
COCCO[C@H]1CC[C@@]2(C)C(=CCC3C2CC[C@@]2(C)C3CC[C@]2(C)O)C1 (some centres not stated)	inactive: -0.607%
CCOP(=O)(C#Cc1ccccc1)C(O)c1ccc(Br)cc1 (configuration not stated)	inactive: -0.875%
CC1=NCCc2c1[nH]c1cc(O)ccc21	inactive: -7.19%
C[C@]12CCC3C(CC[C@H]4[C@H](O)[C@H](O)CC[C@]34C)C1CCC2=O (some centres not stated)	inactive: 5.48%
c1ccc2nc(N3CCNCC3)ccc2c1	inactive: 1.68%
COc1nc(C)nc(NC(=O)NS(=O)(=O)c2ccccc2Cl)n1	inactive: 1.41%
COc1cc([C@@H]2c3cc4c(cc3[C@@H](OC)[C@H]3COC(=O)[C@H]23)OCO4)cc(OC)c1O	inactive: -10.6%
CCOC(=O)c1cncn1[C@@H](C)c1ccccc1	inactive: -4.3%
CC1(C)OC(c2ccccc2)=C/C(=C/C=C2C(=O)NC(=S)NC2=O)O1	inactive: -12.9%
CCC1(C)OC(c2ccccc2)=C/C(=C/C=C2C(=O)NC(=O)NC2=O)O1 (configuration not stated)	inactive: 8.87%
Nc1ccc(Cl)c(Cl)c1	inactive: 5.82%
CCC1(CC)C(=O)C=CNC1=O	inactive: -15%
C[C@@H](N)Cc1cnc[nH]1	inactive: 9.02%
CC[C@H]1CN2CCC1C[C@H]2[C@H](O)c1ccnc2ccc(OC)cc12 (some centres not stated)	inactive: 3.28%
COc1ccc(-c2ccc(OC)c(OC)c2OC)cc1	inactive: -2.79%
CC(C)C[C@@H]1COc2cccc(N3CCN(C)CC3)c2S(=O)(=O)N1	inactive: -14.9%

In another format: entries from further up
Structure (SMILES) | activity change, negative = cytotoxicity
C[C@@H](N)Cc1cnc[nH]1 | inactive: 9.02%
CC[C@H]1CN2CCC1C[C@H]2[C@H](O)c1ccnc2ccc(OC)cc12 (some centres not stated) | inactive: 3.28%
